The list shows a part of the results. Further columns of the screen follow, without active or inactive calls. Most of these compounds were active or inconclusive in the main read-out, so they are no random draw. The note in brackets gives the kind of curve behind each potency; many fits are weak.
Experiment: qHTS Assay to Find Inhibitors of Chronic Active B-Cell Receptor Signaling
Settings: ABC-DLBCL IkBa-CBG/CBR reporter, luminescence ratio (green luciferase fused to IkBa over red control in TMD8 lymphoma cells), 4 h
Outline: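 Doxycycline induced both beetle luciferases in TMD8 lymphoma cells; IKK-driven degradation limits the IkappaBalpha-fused green signal, while red luminescence normalises for cell number and nonspecific effects. Compounds tested up to 46 uM, 4 hrs.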

[1] = measured here: CBR red luminescence, cell number
[2] = measured here: IkBa-CBG green luminescence

Compound | AC50 [1] | AC50 [2]
CCCCc1cc2ccccc2c(OCCN(C)C)n1 | 6.51 µM [rising, partial curve, poor fit] | 
CCN1CCc2nc(NC(=O)c3ccc4c(c3)OCCO4)sc2C1 | 22.4 µM [falling, single point] | 
COc1ccccc1C(=O)NC(=O)COC(=O)c1cccc(NC(C)=O)c1 | 14.1 µM [falling, partial curve, poor fit] | 
O=C(Oc1cccc(Nc2ncnc3ccccc23)c1)c1cccnc1 | 35.5 µM [falling, single point] | 
CCC(=O)NCCc1sc2nc(-c3ccc(OC)cc3)nn2c1C | 3.55 µM [rising, full curve] | 
C/C(=N/Nc1nc(-c2ccccc2)c(CC(=O)O)s1)c1ccccc1 | 12.6 µM [falling, partial curve] | 
O=C(C(NS(=O)(=O)c1cccs1)c1ccccc1)N1CCN(c2ccccc2F)CC1 (stereo unspecified) | 4.11 µM [falling, single point] | 
Cc1ccc(C)c(Cn2nnc(C(=O)Nc3ccc4c(c3)OCCO4)c2N)c1 | 5.17 µM [falling, full curve] | 
CCC(C)C(=O)Nc1nnc(SCC(=O)Nc2ccccc2F)s1 (stereo unspecified) | 1.12 µM [rising, full curve, poor fit] | 
CNC(=O)c1c(NC(=O)C2=COCCO2)sc2c1CCC(C)C2 (stereo unspecified) | 0.316 µM [rising, full curve, poor fit] | 
c1ccc(-c2noc(CSc3nnc(Cc4cccs4)n3-c3ccccc3)n2)cc1 | 29.1 µM [falling, single point] | 
CN(C)S(=O)(=O)c1ccc(NC(=O)c2ccc3ncsc3c2)cc1 | 14.1 µM [falling, partial curve, poor fit] | 
O=C1NC(c2ccccc2O)Nc2ccccc21 (stereo unspecified) | 35.5 µM [falling, single point] | 
Cc1cc(NC(=O)c2cccc(COc3ccc(Br)cc3)c2)no1 | 16.4 µM [falling, single point] | 
CCOc1ccccc1-n1nnnc1SCC(=O)O | 35.5 µM [rising, single point] | 
O=C(/C=C/c1ccncc1)c1ccc(NC(=O)c2ccccc2F)cc1 | 25.9 µM [falling, partial curve, poor fit] | 32.6 µM [falling, partial curve, poor fit]
O=C(COC(=O)Cc1ccccc1F)NCCc1ccccc1 | 6.51 µM [rising, single point] | 
CC(=O)Nc1nc2ccccc2n1CCOc1ccccc1Cl | 20.6 µM [rising, partial curve, poor fit] | 
CCC1(C)Cc2ccccc2-c2nc(NN)[nH]c(=O)c21 (stereo unspecified) | 11.2 µM [falling, partial curve, poor fit] | 
CCOC(=O)c1c(NC(=O)C2C3C=CC(C3)C2C(=O)O)sc2c1CC(C)(C)OC2 (stereo unspecified) | 5.01 µM [rising, full curve, poor fit] | 
O=C(NCc1ccccc1Cl)c1cnc2n(c1=O)CCS2 | 6.51 µM [rising, single point] | 

Compound | AC50 [1] | AC50 [2]
COc1ccc(O)c(/C=N/NC(=S)Nc2cccc(S(=O)(=O)N(C)C)c2)c1 | 13 µM [falling, partial curve, poor fit] | 
COc1cc(C(=O)Nc2cc(Cl)ccc2-n2cncn2)ccc1OC(F)F | 6.51 µM [rising, partial curve, poor fit] | 
COc1ccc(CCNC(=O)c2ccc3c(=O)n4c(nc3c2)CCC4)cc1OC | 0.366 µM [rising, partial curve, poor fit] | 
CN(C)c1c(-c2ccccc2)cc(-c2ccccc2)[nH]c1=O | 10 µM [falling, partial curve, poor fit] | 
O=C(Nc1nc(-c2ccccn2)cs1)c1cc2ccccc2o1 | 11.2 µM [falling, single point] | 
CCCCCC(C)NC(=S)NC(=O)c1cc(S(=O)(=O)N2CCOCC2)ccc1C (stereo unspecified) | 29.1 µM [falling, single point] | 
O=C(O)c1ccccc1C(=O)Nc1ccc(-c2csc(-c3ccccc3)n2)cc1 | 1.84 µM [rising, partial curve] | 
CC(=O)c1ccc(Oc2ncnc(N)c2[N+](=O)[O-])cc1 | 11.2 µM [falling, partial curve, poor fit] | 
CCN(CC)S(=O)(=O)c1ccc(N/N=C(\C)c2ccc(OC)cc2O)nc1 | 35.5 µM [rising, single point] | 3.98 µM [falling, full curve, poor fit]
O=C(Nc1nc2ccccc2s1)C1CC(=O)N(c2ccc(Br)cc2)C1 (stereo unspecified) | 32.6 µM [falling, single point] | 
COc1ccccc1C(=O)NCC(=O)NC(C)CCc1ccccc1 (stereo unspecified) | 35.5 µM [falling, single point] | 
O=[N+]([O-])c1ccc(/C=N/Nc2ccccn2)cc1 | 1.26 µM [rising, full curve, poor fit] | 
Cc1ccnc(NC(=O)CCC2CCCCC2)c1 | 0.164 µM [rising, partial curve, poor fit] | 
CCOC(=O)C1CCN(C(=O)C2CC(=O)N(c3ccc(C)cc3)C2)CC1 (stereo unspecified) | 7.31 µM [falling, single point] | 
Clc1cccc(-n2cc(-c3ccccc3)c3c(N4CCCCC4)ncnc32)c1 | 17.8 µM [rising, single point] | 
O=C1/C(=C/c2cccnc2)SC(=S)N1c1ccc(O)cc1 | 3.98 µM [falling, partial curve, poor fit] | 
CCc1ccc(-c2csc(NC(=O)Oc3ccccc3)n2)cc1 | 1.16 µM [rising, full curve, poor fit] | 
CC1(C)CC(=O)c2c(nn(-c3ccccc3)c2-c2ccncc2)C1 | 0.058 µM [falling, full curve, poor fit] | 
O=C(c1ccc(S(=O)(=O)c2cccc(Cl)c2)c([N+](=O)[O-])c1)N1CCN(Cc2ccccc2)CC1 | 13 µM [falling, partial curve, poor fit] | 
COc1cccc(C(=O)NCCN2C(=O)S/C(=C/c3cccs3)C2=O)c1OC | 5.62 µM [falling, partial curve, poor fit] | 
N#C/C(=C\c1cccnc1)c1nc2c(s1)CCCC2 | 7.08 µM [rising, full curve, poor fit] | 

Compound | AC50 [1] | AC50 [2]
Cc1ccc(C(C)C)c(OCC(=O)Nc2ccccc2N2CCN(C)CC2)c1 | 35.5 µM [falling, single point] | 
Cc1cc(C(=O)N/N=C/C=C/c2ccccc2)c(C)o1 | 14.6 µM [falling, partial curve, poor fit] | 
CN1CCC(N(C)C(=O)c2ccccc2Nc2ccc(SC(F)F)cc2)CC1 | 6.31 µM [rising, single point] | 
CCCNC(=O)COc1ccc2c(=O)c(Oc3ccccc3F)coc2c1 | 3.66 µM [rising, partial curve, poor fit] | 
O=c1oc2ccccc2nc1/C=C(O)/C=C/c1ccc(F)cc1 | 5.17 µM [falling, partial curve, poor fit] | 
CC1=C(C(=O)OCc2ccccc2)C(c2ccccc2Cl)NC(=O)N1C (stereo unspecified) | 35.5 µM [falling, single point] | 
O=C(Nc1cccc(Cl)c1)OCc1cnc(Cl)s1 | 1.03 µM [rising, full curve, poor fit] | 
CCc1cc2cc3c(cc2nc1SCC(=O)N1CCN(C(=O)c2ccco2)CC1)OCO3 | 15.8 µM [falling, single point] | 
Cc1cccc(C)c1OCc1cc(C(=O)N2CCN(c3ccc(F)cc3)CC2)no1 | 3.55 µM [rising, partial curve, poor fit] | 
O=C(Cn1c(=O)cnc2ccccc21)N1CCN(S(=O)(=O)c2ccc(F)cc2)CC1 | 2.59 µM [rising, full curve, poor fit] | 
COc1ccccc1N1CCN(C(=O)c2cc(=O)c3cc(C)cc(C)c3o2)CC1 | 12.6 µM [rising, partial curve, poor fit] | 0.631 µM [falling, full curve, poor fit]
O=C(CCCN1C(=O)c2ccccc2C1=O)NCc1ccco1 | 0.517 µM [rising, partial curve] | 
CN(C)c1ccc(N2C(=O)CC(Sc3ccccc3C(=O)O)C2=O)cc1 (stereo unspecified) | 29.1 µM [falling, single point] | 
CCN1CCC(=NNC(=O)CC23CC4CC(CC(C4)C2)C3)CC1 | 35.5 µM [falling, single point] | 
CC1=C(C(=O)Nc2ccccn2)C(c2ccc(Cl)cc2)NC(=S)N1 (stereo unspecified) | 35.5 µM [falling, single point] | 
O=C1[C@@H]2CSCN2C(=O)CN1CCc1cccc(F)c1 | 11.2 µM [rising, partial curve] | 
O=C(COc1ccc(-c2ccccc2)cc1)Nc1cccnc1 | 2.06 µM [rising, partial curve] | 
Cc1cc(C)nc(Nc2n[nH]c(-c3ccccc3Cl)n2)n1 | 3.98 µM [falling, partial curve, poor fit] | 
COc1ccc(OC)c(/C=N/NC(=O)C(=O)NCc2cccnc2)c1 | 15.8 µM [rising, single point] | 
CC(C)N(C(=O)[C@H]1C[C@H](CC(=O)NCc2ccco2)C(=O)N2CCc3c([nH]c4ccc(Cl)cc34)[C@]12C)C(C)C | 20.6 µM [falling, single point] | 
COc1ccc(C2=CC(=O)C[C@H](c3ccc(F)cc3)C2)c(F)c1F | 4.61 µM [rising, partial curve] | 

Pulled by structure from the list above (2):
Compound | AC50 [1] | AC50 [2]
O=c1oc2ccccc2nc1/C=C(O)/C=C/c1ccc(F)cc1 | 5.17 µM [falling, partial curve, poor fit] | 
Cc1cccc(C)c1OCc1cc(C(=O)N2CCN(c3ccc(F)cc3)CC2)no1 | 3.55 µM [rising, partial curve, poor fit] | 

From PubChem BioAssay AID493014 (National Center for Advancing Translational Sciences (NCATS), 2011)
